Laboratory results as given in PubChem BioAssay AID2284369 (EPA ToxCast).
This is a selection; strong and weak results do not stand in their true shares. Inconclusive results are not listed. Active and inactive are the calls of the source. The calls were made as follows: active = hit-call score of the fitted dose curve at least 0.9, where 1 is the maximum; inconclusive = response in the unintended direction; inactive = score below 0.9.

System: frog Estrogen Receptor (ER1), gene 398734
Test: ATG_frER1_EcoTox2: Attagene TRANS-FACTORIAL EcoTox-2 HepG2 Assay for frog Estrogen Receptor (ER1)
Method: ATG_EcoTox2 is a cell-based, multiplexed assay created by modifying the existing Attagene TRANS-FACTORIAL system to include a panel of nuclear receptors from some or all the following species: human (Homo sapiens), african clawed frog (Xenopus laevis), rainbow trout (Oncorhynchus mykiss), japanese medaka (Oryzias latipes), and zebrafish (Danio rerio). The ECOTOX2-FACTORIAL format uses HepG2, a human liver cell line, with measurements taken at 24 hours after chemical dosing in a 24-well plate. ATG_frER1_EcoTox2 is one of 29 assay components calculated in the ATG_EcoTox2 assay. It is designed to make measurements of mRNA induction, a form of inducible reporter, as detected with fluorescence intensity signals by Reverse transcription polymerase chain reaction (RT-PCR) and Capillary electrophoresis technology.The assay endpoint ATG_frER1_EcoTox2 was analyzed in the positive analysis fitting direction relative to DMSO as the negative control and baseline of activity. Using a type of inducible reporter, measures of mRNA for gain-of-signal activity can be used to understand the reporter gene at the transcription factor-level as they relate to the gene ER. Furthermore, this assay endpoint can be referred to as a primary readout, because this assay has produced multiple assay endpoints where this one serves a reporter gene function. […]

Structure (SMILES): CC(C)(Oc1ccc(Cl)cc1)C(=O)O
- outcome: inactive
